Results published in paper PMC4683276.
No constants are given. Whether binding was seen depends on the method and setting. Binding seen in cells or lysates may run through a third protein. Some results given as binding are weak or reduced against the parent protein; the word gives no strength. For some assays here: Tags and fused reporters may be left off the sequences shown.

By UniProt entry, the sequences of proteins in these tests, tags left out. Residues count along the entry.
UniProt Q01974, residues 34-943: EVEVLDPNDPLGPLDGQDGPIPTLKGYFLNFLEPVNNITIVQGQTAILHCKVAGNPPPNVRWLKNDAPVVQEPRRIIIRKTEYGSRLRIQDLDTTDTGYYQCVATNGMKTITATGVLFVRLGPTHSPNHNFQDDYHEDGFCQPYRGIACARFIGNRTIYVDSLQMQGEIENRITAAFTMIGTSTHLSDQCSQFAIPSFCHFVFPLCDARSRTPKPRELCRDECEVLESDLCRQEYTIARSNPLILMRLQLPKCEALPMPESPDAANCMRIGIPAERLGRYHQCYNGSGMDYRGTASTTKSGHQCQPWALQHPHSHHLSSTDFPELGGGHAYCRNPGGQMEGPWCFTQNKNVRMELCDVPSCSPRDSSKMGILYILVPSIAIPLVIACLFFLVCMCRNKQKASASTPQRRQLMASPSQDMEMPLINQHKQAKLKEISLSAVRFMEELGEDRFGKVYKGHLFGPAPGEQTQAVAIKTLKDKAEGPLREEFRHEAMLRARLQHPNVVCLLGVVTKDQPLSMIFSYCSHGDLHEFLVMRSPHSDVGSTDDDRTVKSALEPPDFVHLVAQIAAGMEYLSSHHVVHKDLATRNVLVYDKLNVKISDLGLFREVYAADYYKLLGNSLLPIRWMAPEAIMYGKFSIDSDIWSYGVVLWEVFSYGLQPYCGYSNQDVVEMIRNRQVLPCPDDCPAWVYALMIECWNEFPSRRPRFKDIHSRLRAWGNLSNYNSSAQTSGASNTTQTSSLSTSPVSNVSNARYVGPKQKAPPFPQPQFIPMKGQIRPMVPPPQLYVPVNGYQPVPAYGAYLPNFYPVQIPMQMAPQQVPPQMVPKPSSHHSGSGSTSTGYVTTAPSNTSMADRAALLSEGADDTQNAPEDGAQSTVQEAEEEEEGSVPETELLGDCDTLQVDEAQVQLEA
UniProt Q01973, residues 30-937: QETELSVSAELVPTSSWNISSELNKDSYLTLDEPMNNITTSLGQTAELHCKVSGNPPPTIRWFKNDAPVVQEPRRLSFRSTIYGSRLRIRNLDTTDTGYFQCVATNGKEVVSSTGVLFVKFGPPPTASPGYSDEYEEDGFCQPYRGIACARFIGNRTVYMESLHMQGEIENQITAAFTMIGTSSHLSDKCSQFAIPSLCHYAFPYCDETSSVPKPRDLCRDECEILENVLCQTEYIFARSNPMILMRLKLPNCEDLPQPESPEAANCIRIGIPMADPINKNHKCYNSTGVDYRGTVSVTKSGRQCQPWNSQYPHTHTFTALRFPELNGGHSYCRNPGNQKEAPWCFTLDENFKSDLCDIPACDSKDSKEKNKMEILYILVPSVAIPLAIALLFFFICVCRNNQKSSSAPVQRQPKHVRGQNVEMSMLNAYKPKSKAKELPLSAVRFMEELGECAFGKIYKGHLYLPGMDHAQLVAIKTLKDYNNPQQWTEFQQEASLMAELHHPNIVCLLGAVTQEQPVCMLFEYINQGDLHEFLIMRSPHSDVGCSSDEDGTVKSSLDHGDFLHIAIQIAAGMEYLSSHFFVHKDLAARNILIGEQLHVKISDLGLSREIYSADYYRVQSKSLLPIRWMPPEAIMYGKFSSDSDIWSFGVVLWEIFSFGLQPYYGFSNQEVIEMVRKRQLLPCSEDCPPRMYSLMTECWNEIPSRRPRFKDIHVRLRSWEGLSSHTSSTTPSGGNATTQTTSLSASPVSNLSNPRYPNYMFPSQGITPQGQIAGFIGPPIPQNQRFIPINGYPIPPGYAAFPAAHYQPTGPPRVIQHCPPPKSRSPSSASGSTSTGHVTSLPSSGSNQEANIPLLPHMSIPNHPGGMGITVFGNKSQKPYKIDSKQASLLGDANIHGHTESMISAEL
UniProt Q9Z138, residues 34-944: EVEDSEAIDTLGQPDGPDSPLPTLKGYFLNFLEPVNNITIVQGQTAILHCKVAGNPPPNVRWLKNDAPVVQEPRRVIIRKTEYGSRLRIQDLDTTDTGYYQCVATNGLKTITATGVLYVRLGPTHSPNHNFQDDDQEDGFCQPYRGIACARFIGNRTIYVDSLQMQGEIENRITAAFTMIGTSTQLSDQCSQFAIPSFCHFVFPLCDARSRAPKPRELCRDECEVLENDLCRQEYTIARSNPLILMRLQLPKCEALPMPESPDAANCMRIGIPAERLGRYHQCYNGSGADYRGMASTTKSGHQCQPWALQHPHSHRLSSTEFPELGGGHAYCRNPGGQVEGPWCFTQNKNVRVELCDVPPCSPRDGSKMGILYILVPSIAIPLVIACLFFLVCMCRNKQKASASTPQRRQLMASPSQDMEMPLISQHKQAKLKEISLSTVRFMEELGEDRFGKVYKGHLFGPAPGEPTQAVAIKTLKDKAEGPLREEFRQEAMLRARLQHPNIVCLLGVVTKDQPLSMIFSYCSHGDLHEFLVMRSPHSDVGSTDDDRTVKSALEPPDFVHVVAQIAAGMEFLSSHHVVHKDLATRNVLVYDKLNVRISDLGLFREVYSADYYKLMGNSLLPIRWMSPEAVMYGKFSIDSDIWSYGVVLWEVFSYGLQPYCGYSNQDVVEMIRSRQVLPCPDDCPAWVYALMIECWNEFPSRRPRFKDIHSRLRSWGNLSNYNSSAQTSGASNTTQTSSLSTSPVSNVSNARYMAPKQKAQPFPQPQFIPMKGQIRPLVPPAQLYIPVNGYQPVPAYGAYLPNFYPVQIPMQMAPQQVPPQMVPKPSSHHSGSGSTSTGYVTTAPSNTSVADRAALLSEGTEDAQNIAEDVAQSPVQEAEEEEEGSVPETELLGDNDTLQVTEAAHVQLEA

What was measured:
[1] = target: T1, PTK7 (protein tyrosine kinase 7), full-length human construct (human) (UniProt Q13308); test: co-IP; co-expression in HEK 293T cells; 1% Triton X-100 lysis buffer (50 mM Hepes, 150 mM NaCl); immunoprecipitation with anti-PTK7 antibody and protein G-agarose; Western blot (Fig. 1A, C, D)
T1 sequence: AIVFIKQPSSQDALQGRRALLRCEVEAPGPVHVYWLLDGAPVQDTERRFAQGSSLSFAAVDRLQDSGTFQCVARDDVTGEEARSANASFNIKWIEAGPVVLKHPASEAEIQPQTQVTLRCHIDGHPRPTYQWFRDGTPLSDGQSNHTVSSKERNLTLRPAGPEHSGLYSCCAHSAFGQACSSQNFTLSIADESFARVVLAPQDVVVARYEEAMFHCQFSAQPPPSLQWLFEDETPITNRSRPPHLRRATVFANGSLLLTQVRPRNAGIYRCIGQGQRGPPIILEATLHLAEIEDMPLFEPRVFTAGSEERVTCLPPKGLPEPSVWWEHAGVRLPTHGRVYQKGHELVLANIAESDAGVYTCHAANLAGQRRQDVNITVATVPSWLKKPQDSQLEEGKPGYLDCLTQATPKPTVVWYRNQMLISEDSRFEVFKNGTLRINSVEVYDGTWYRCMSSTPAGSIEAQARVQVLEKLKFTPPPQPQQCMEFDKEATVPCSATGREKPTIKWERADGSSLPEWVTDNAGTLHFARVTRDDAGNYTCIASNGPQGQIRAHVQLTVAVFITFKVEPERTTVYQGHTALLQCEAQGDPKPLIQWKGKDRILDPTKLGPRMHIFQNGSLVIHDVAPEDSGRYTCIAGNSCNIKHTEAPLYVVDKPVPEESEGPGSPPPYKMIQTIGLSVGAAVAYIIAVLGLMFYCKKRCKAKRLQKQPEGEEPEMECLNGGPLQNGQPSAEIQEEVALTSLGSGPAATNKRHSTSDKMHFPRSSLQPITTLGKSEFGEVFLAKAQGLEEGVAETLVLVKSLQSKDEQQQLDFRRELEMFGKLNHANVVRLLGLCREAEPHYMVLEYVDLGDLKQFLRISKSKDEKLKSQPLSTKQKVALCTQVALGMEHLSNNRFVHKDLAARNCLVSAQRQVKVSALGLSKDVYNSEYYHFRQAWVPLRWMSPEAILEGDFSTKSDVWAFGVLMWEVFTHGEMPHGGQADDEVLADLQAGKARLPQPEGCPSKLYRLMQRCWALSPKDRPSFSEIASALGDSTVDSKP

HA-WNT5A = target: T2, HA-WNT5A (UniProt P41221); test: co-IP; PTK7, FLAG-ROR2 and HA-WNT5A co-expressed in HEK 293T cells; immunoprecipitation with anti-HA antibody; Western blot (Fig. 2E)
T2 sequence: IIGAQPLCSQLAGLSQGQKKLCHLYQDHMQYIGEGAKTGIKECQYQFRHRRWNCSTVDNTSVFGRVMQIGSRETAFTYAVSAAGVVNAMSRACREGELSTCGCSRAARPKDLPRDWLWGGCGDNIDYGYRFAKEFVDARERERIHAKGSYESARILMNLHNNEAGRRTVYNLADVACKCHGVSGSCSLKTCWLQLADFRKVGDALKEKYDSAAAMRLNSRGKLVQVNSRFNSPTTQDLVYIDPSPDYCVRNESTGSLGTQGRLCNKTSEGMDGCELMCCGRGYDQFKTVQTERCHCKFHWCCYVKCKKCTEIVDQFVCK

[2] = target: T3, PTK7, endogenous in mouse embryonic fibroblasts (mouse (endogenous in MEFs)) (UniProt Q8BKG3); test: co-IP; endogenous proteins of MEFs (expressing or not expressing Ptk7), stimulated with WNT5A (200 ng/ml) or left unstimulated; immunoprecipitation with anti-PTK7 antibody or an isotype-matched control IgG; Western blot (Fig. 1F)
T3 sequence: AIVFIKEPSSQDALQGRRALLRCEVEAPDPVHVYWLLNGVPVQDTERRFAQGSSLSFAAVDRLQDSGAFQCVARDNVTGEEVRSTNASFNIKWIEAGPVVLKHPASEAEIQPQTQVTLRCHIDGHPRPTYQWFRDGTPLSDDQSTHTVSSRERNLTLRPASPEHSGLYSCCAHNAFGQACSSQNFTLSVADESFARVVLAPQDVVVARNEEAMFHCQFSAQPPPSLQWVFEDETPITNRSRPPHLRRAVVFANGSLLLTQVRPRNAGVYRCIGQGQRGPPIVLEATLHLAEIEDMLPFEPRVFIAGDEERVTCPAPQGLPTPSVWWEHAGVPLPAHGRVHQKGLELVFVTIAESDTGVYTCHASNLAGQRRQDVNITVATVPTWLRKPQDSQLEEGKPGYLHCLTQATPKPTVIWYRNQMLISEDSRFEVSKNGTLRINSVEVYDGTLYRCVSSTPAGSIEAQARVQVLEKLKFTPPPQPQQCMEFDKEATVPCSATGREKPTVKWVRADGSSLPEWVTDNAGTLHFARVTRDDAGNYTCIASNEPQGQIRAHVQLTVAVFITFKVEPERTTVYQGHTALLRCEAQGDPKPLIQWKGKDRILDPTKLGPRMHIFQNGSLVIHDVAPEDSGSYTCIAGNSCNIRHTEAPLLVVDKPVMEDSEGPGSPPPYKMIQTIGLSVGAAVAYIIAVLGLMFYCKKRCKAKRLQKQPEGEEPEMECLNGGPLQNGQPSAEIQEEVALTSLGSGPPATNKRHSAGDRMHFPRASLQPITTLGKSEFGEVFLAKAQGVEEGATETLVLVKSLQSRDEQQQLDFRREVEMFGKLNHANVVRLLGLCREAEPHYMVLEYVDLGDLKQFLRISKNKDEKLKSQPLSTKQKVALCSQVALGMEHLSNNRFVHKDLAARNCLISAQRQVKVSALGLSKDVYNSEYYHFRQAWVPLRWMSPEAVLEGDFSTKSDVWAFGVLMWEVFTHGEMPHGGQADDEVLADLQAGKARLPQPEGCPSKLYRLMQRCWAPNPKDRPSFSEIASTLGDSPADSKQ

[3] = target: FLAG-ROR2 (receptor tyrosine kinase-like orphan receptor 2) (UniProt Q01974); test: co-IP; co-expression in HEK 293T cells; immunoprecipitation with anti-FLAG antibody; Western blot (Fig. 2A, B, D); in Fig. 2D also in cells transfected with a siRNA against ROR2
FLAG-PTK7 (human) = target: T4, FLAG-PTK7 (human) (UniProt Q13308); test: as above
T4 sequence: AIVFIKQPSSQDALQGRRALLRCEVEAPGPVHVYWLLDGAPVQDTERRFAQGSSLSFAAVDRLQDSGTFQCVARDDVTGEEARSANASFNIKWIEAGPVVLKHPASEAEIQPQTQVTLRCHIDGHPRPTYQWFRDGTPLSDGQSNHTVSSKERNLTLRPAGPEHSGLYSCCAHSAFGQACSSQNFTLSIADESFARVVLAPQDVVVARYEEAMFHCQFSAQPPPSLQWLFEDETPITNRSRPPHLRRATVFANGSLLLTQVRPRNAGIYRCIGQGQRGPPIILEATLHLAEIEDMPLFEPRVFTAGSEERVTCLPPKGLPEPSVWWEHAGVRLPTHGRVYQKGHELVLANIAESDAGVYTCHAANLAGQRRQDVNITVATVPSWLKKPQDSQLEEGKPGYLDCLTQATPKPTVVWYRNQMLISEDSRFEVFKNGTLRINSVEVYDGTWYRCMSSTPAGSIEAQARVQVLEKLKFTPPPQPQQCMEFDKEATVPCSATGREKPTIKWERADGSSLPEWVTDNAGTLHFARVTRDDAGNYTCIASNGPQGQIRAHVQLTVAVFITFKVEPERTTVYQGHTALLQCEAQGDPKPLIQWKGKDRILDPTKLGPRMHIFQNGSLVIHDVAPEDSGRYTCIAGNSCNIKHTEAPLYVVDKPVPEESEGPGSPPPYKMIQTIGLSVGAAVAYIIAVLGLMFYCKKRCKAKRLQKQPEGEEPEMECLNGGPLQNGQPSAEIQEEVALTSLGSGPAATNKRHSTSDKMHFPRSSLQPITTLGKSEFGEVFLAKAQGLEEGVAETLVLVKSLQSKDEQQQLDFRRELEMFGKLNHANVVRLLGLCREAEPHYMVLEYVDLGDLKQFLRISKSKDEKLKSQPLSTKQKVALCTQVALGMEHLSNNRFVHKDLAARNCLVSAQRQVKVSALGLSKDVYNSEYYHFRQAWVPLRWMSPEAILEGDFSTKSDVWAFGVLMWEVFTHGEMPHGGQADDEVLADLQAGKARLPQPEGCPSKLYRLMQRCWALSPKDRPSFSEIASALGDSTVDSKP

MYC-WNT5A = target: T5, MYC-WNT5A (UniProt P41221); test: co-IP; full and truncated PTK7 co-expressed with MYC-WNT5A in HEK 293T cells; immunoprecipitation with anti-MYC antibody; Western blot (Fig. 2C)
T5 sequence: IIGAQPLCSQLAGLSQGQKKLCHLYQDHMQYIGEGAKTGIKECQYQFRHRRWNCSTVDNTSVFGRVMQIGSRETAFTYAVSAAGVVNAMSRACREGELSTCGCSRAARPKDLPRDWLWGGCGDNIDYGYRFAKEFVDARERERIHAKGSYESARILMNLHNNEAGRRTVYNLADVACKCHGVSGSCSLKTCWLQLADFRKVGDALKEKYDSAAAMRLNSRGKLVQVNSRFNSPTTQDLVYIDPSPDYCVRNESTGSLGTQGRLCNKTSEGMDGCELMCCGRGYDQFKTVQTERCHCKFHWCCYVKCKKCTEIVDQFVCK

FLAG-ROR1 (from UniProt Q01973 30-937) (receptor)
binding [1]: no binding

FLAG-ROR2 (receptor tyrosine kinase-like orphan receptor 2) (from UniProt Q01974 34-943)
binding (HA-WNT5A): binds
binding [1]: binds

ROR2, endogenous in mouse embryonic fibroblasts (from UniProt Q9Z138 34-944) (receptor)
binding [2]: binds

B1: MYC-WNT5A (ligand, UniProt P41221 62-380)
chain: IIGAQPLCSQLAGLSQGQKKLCHLYQDHMQYIGEGAKTGIKECQYQFRHRRWNCSTVDNTSVFGRVMQIGSRETAFTYAVSAAGVVNAMSRACREGELSTCGCSRAARPKDLPRDWLWGGCGDNIDYGYRFAKEFVDARERERIHAKGSYESARILMNLHNNEAGRRTVYNLADVACKCHGVSGSCSLKTCWLQLADFRKVGDALKEKYDSAAAMRLNSRGKLVQVNSRFNSPTTQDLVYIDPSPDYCVRNESTGSLGTQGRLCNKTSEGMDGCELMCCGRGYDQFKTVQTERCHCKFHWCCYVKCKKCTEIVDQFVCK
binding [3]: binds

B2: HA-WNT5A (ligand, UniProt P41221 62-380)
chain: IIGAQPLCSQLAGLSQGQKKLCHLYQDHMQYIGEGAKTGIKECQYQFRHRRWNCSTVDNTSVFGRVMQIGSRETAFTYAVSAAGVVNAMSRACREGELSTCGCSRAARPKDLPRDWLWGGCGDNIDYGYRFAKEFVDARERERIHAKGSYESARILMNLHNNEAGRRTVYNLADVACKCHGVSGSCSLKTCWLQLADFRKVGDALKEKYDSAAAMRLNSRGKLVQVNSRFNSPTTQDLVYIDPSPDYCVRNESTGSLGTQGRLCNKTSEGMDGCELMCCGRGYDQFKTVQTERCHCKFHWCCYVKCKKCTEIVDQFVCK
binding (FLAG-PTK7 (human)): binds

B3: PTK7 (protein tyrosine kinase 7), full-length human construct (receptor, UniProt Q13308 31-1070)
chain: AIVFIKQPSSQDALQGRRALLRCEVEAPGPVHVYWLLDGAPVQDTERRFAQGSSLSFAAVDRLQDSGTFQCVARDDVTGEEARSANASFNIKWIEAGPVVLKHPASEAEIQPQTQVTLRCHIDGHPRPTYQWFRDGTPLSDGQSNHTVSSKERNLTLRPAGPEHSGLYSCCAHSAFGQACSSQNFTLSIADESFARVVLAPQDVVVARYEEAMFHCQFSAQPPPSLQWLFEDETPITNRSRPPHLRRATVFANGSLLLTQVRPRNAGIYRCIGQGQRGPPIILEATLHLAEIEDMPLFEPRVFTAGSEERVTCLPPKGLPEPSVWWEHAGVRLPTHGRVYQKGHELVLANIAESDAGVYTCHAANLAGQRRQDVNITVATVPSWLKKPQDSQLEEGKPGYLDCLTQATPKPTVVWYRNQMLISEDSRFEVFKNGTLRINSVEVYDGTWYRCMSSTPAGSIEAQARVQVLEKLKFTPPPQPQQCMEFDKEATVPCSATGREKPTIKWERADGSSLPEWVTDNAGTLHFARVTRDDAGNYTCIASNGPQGQIRAHVQLTVAVFITFKVEPERTTVYQGHTALLQCEAQGDPKPLIQWKGKDRILDPTKLGPRMHIFQNGSLVIHDVAPEDSGRYTCIAGNSCNIKHTEAPLYVVDKPVPEESEGPGSPPPYKMIQTIGLSVGAAVAYIIAVLGLMFYCKKRCKAKRLQKQPEGEEPEMECLNGGPLQNGQPSAEIQEEVALTSLGSGPAATNKRHSTSDKMHFPRSSLQPITTLGKSEFGEVFLAKAQGLEEGVAETLVLVKSLQSKDEQQQLDFRRELEMFGKLNHANVVRLLGLCREAEPHYMVLEYVDLGDLKQFLRISKSKDEKLKSQPLSTKQKVALCTQVALGMEHLSNNRFVHKDLAARNCLVSAQRQVKVSALGLSKDVYNSEYYHFRQAWVPLRWMSPEAILEGDFSTKSDVWAFGVLMWEVFTHGEMPHGGQADDEVLADLQAGKARLPQPEGCPSKLYRLMQRCWALSPKDRPSFSEIASALGDSTVDSKP
binding (MYC-WNT5A): binds

B4: HA-WNT1 (ligand, UniProt P04628 28-370)
chain: ANSSGRWWGIVNVASSTNLLTDSKSLQLVLEPSLQLLSRKQRRLIRQNPGILHSVSGGLQSAVRECKWQFRNRRWNCPTAPGPHLFGKIVNRGCRETAFIFAITSAGVTHSVARSCSEGSIESCTCDYRRRGPGGPDWHWGGCSDNIDFGRLFGREFVDSGEKGRDLRFLMNLHNNEAGRTTVFSEMRQECKCHGMSGSCTVRTCWMRLPTLRAVGDVLRDRFDGASRVLYGNRGSNRASRAELLRLEPEDPAHKPPSPHDLVYFEKSPNFCTYSGRLGTAGTAGRACNSSSPALDGCELLCCGRGHRTRTQRVTERCNCTFHWCCHVSCRNCTHTRVLHECL
binding (FLAG-PTK7 (human)): no binding
